These are yes or no findings as the source states them, for the method shown. In cells and extracts the contact can be indirect. For some assays here: Binding can be weak; no strength is given. Where a sequence is shown, tags or fusion partners need not be part of it.

The values below come from publication PMC7239482.

Common to all, as to experiment: pull-down; GST fusion on glutathione sepharose 4B beads; in vitro translated HA-tagged protein (15 μL TNT mix in 700 μL binding buffer) bound at 4°C overnight; washes in 50 mM Tris pH 8.0, 300 mM NaCl, 0.2% NP-40, 1 mM DTT; anti-HA blot; only the target purified
One experiment concerns the target T1, GST-SID-3 (C. elegans) (UniProt Q10925).
T1 sequence: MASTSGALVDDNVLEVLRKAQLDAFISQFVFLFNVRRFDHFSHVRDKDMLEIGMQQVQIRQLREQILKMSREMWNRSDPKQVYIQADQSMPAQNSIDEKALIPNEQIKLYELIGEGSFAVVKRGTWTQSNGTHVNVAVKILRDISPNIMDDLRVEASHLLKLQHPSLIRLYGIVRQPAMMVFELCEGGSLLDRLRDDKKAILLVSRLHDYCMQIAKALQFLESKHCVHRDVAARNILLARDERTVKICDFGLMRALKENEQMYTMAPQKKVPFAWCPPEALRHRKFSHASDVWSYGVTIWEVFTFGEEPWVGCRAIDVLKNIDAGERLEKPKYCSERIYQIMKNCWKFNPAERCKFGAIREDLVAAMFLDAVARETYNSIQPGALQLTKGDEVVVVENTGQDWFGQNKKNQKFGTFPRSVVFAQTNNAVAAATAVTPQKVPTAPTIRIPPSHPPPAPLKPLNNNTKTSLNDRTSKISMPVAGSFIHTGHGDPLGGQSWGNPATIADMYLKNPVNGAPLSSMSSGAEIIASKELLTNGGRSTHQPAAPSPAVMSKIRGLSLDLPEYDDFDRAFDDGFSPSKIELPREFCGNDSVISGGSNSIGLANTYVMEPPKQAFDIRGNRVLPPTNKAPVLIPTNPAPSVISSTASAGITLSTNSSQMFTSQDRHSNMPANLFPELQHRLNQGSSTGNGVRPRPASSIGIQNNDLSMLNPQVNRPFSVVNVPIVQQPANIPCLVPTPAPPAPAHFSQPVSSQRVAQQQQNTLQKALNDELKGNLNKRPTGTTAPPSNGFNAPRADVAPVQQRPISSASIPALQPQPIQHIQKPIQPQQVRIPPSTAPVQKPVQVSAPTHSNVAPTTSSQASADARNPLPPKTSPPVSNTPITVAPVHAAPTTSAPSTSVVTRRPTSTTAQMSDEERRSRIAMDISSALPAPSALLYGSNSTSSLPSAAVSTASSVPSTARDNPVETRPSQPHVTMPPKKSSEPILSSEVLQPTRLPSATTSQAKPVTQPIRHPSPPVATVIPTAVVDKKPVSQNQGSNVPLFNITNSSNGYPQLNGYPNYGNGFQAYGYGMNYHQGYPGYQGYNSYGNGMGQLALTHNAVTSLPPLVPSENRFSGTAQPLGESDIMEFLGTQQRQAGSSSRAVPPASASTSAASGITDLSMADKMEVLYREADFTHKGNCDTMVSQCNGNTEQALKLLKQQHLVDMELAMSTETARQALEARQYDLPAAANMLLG

Experiment [1] deals with T2, GST-SID-3(369-471aa) (C. elegans) (UniProt Q10925).
T2 sequence: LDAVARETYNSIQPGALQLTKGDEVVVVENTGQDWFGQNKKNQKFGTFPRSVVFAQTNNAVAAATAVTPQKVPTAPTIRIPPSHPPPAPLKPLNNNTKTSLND

Experiment [2] addresses T3, GST-SID-3(471-544aa) (C. elegans) (UniProt Q10925).
T3 sequence: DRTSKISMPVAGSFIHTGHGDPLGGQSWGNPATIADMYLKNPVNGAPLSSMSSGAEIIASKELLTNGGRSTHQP

The target of experiment [3] is T4, GST-SID-3(aa 1–370 K139A) (C. elegans) (UniProt Q10925).
T4 sequence: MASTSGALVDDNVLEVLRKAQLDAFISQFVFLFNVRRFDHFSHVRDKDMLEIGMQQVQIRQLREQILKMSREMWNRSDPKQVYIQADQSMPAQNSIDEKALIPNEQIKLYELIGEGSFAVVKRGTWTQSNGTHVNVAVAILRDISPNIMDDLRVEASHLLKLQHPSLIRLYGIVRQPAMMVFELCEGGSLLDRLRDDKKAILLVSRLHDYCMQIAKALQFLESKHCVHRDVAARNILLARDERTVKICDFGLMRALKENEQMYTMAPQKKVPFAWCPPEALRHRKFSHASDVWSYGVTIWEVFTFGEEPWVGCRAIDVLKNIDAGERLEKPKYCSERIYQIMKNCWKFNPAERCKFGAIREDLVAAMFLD

The target of experiment [4] is T5, GST-SID-3(aa 1–370) (C. elegans) (UniProt Q10925).
T5 sequence: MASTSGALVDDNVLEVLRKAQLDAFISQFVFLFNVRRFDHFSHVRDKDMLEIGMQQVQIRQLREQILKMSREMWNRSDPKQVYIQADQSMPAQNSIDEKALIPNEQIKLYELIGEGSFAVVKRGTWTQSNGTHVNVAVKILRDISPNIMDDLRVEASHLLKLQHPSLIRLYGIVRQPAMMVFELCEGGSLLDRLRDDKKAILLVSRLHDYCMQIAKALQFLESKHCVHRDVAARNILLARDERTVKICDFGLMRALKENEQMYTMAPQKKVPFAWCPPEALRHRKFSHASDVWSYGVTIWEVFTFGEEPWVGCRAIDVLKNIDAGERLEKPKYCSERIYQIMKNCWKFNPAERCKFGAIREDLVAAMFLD

For experiment [5], the target named is T6, GST-SID-3(aa 545–782) (C. elegans) (UniProt Q10925).
T6 sequence: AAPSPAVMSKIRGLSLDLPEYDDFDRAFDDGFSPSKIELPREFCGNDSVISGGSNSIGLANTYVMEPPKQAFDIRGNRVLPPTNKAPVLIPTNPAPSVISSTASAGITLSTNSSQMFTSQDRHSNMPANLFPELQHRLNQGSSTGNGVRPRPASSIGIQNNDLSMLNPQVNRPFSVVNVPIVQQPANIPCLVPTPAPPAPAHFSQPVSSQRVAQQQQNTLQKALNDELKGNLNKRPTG

In the next experiment the target is GST-EHBP-1 (C. elegans).
Another experiment addresses GST-NCK-1 (C. elegans).

As for “HA-EHBP-1(aa 1–223) (C. elegans) (domain or fragment)”, the binding result with GST-SID-3 (C. elegans) is given as “binds”; in experiment [1], “no binding”; in experiment [2] it was “no binding”; in experiment [3], “binds”; in experiment [4], “binds”; in experiment [5] it was “binds”.

B1: HA-DYN-1 (protein, UniProt P39055-2 1-838)
chain: MSWQNQGMQALIPVINRVQDAFSQLGTSVSFELPQIAVVGGQSAGKSSVLENFVGKDFLPRGSGIVTRRPLILQLIQDRNEYAEFLHKKGHRFVDFDAVRKEIEDETDRVTGQNKGISPHPINLRVFSPNVLNLTLIDLPGLTKVPVGDQPADIEQQIRDMILTFINRETCLILAVTPANSDLATSDALKLAKEVDPQGLRTIGVLTKLDLMDEGTDAREILENKLFTLRRGYVGVVNRGQKDIVGRKDIRAALDAERKFFISHPSYRHMADRLGTSYLQHTLNQQLTNHIRDTLPTLRDSLQKKMFAMEKDVAEYKNYQPNDPGRKTKALLQMVTQFNADIERSIEGSSAKLVSTNELSGGARINRLFHERFPFEIVKMEIDEKEMRKEIQYAIRNIHGIRVGLFTPDMAFEAIAKKQITRLKEPSLKCVDLVVNELANVIRQCADTMARYPRLRDELERIVVSHMREREQIAKQQIGLIVDYELAYMNTNHEDFIGFSNAEAKASQGQSAKKNLGNQVIRKGWLSLSNVSFVRGSKDNWFVLMSDSLSWYKDDEEKEKKYMLPLDGVKLKDIEGGFMSRNHKFALFYPDGKNIYKDYKQLELGCTNLDEIDAWKASFLRAGVYPEKQKAQEDESQQEMEDTSIDPQLERQVETIRNLVDSYMRIITKTIKDLVPKAVMHLIVNQTGEFMKDELLAHLYQCGDTDALMEESQIEAQKREEMLRMYHACKEALRIISEVNMSTLGDQPPPLPMSDYRPHPSGPSPVPRPAPAPPGGRQAPMPPRGGPGAPPPPGMRPPPGAPGGGGGMYPPLIPTRVPTPSNGAPEIPARPQVPKRPF
Turning to B1, the binding result with GST-EHBP-1 (C. elegans) was “no binding”; in the experiment with GST-NCK-1 (C. elegans), “binds”.
